The filed quantity is “Percent Effect” (%).
The record does not define 0% and 100%; most values in the screen are far below 50% and negative numbers occur (in some assays of this library far below -100).
Compounds were drawn at random from those tested, without regard to their results.
Two or more numbers in one place are separate tests of the same structure; such repeats can differ widely.

Mtb cholesterol medium: 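Growth of Mycobacterium tuberculosis over 4 days (cholesterol / DPPC medium with tyloxapol); the read-out is not stated. Concentration: 50 µM. Higher reads as more growth inhibition (inferred: compounds with an IC50 in retests scored well above the rest). About 69,000 compounds were tested under these conditions; 0.54% (about 370) showed 50% or more at least once.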
Mtb glucose medium: 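Phenotypic screen: M. tuberculosis growth, glucose 7H9 medium, 3 days; the read-out is not stated. Compounds at 50 µM. The record gives no direction; compounds that gave an IC50 in retests scored well above the rest, so higher reads as more growth inhibition. Of about 69,000 compounds tested this way, about 760 (1.1%) reached 50% or more in at least one test.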

Compound,Mtb cholesterol medium,Mtb glucose medium
COc1ccc(OCCNC(=O)CN(C)Cc2nnc(C)n2C)cc1,0.4272,-25.5
Cn1cc(C[C@H]2[C@H](N3CCOCC3)CCN2C(=O)c2ccc[nH]2)cn1,-16.95 & 13.55,-22.72
CNC(=O)CNCc1c[nH]nc1-c1cc2ccccc2o1.Cl,3.182,3.243
CCCc1cc(NC2CCc3nc(CC)nn3C2)n2ncnc2n1 (stereo not given),0.8737,-7.804
Cc1cc(NCCNc2cccnc2)nc(N)n1,-21.49,-22.85
COc1cc(C(C)NCc2c[nH]nc2C)ccc1OCCO (stereo not given),5.058,2.659 & -10.88
O=C(c1cccnc1Oc1ccc(Cl)cc1)N1CC[C@@H](O)C1,-37.66,-37.84
CCN(CC)c1ccc(CNC(=O)C2(C)CCOCC2)cc1F,11.87,-33.05
COCCN(Cc1ccc(OC)nc1)Cc1cccs1,-1.578,-7.713 & -1.307
O=C(NCC1CCCN1Cc1ccccc1)NCC1(O)CCC1 (stereo not given),-30.49,-89.92
CCc1noc(C(C)N2CCC(C(=O)Nc3cnn(CC)c3)CC2)n1 (stereo not given),-18.34,-44.18
CNC(=O)C(NC(=O)CCc1cccc(OC2CCCC2)c1)C(C)C (stereo not given),21.32,10.77
CC(C)(C)S(=O)(=O)c1ccc(N2CCC(n3cncn3)CC2)cn1,23.31,3.874
CCN1CCC(NC(=O)CN2CCc3c(nc(C4CC4)n3C)C2)CC1,-4.595,6.849
O=C(c1ccc(C2CCNC2)cc1)N1CCC(N2CCC(O)CC2)CC1 (stereo not given),11.38,6.673
Cc1nc(CN(CCc2ccccc2)C2CCN(C)CC2)no1,15.11,2.416 & 19.36
Cc1nnc(CN2CCN(CCOc3ccccc3C#N)CC2)n1C,0.02117,-8.54
Fc1cccc2ncnc(NCC3(N4CCOCC4)CCSC3)c12 (stereo not given),3.185,-7.799 & -21.03
CC(C)Cn1c2c(ccc1=O)CC(N)CC2 (stereo not given),11.77,16.91
Cc1cc2n(n1)[C@@H](C(F)(F)F)C[C@@H](C1CCCN(C(=O)C(C)C)C1)N2 (stereo not given in full),-15.6,-2.672
Fc1ccc(CNCc2nnc3n2CC(C(F)(F)F)CC3)cc1 (stereo not given),-13.83,-3.472
O=C(c1ccc(C2CCCN2C(=O)c2cscn2)s1)N1CCSCC1 (stereo not given),6.613,-6.946 & 3.322
Cc1cc(CN2CCC(CNS(=O)(=O)c3ccccc3Cl)CC2)c(C)o1,5.126,-27.02 & 6.857
CC(C)CC(=O)NS(=O)(=O)c1ccc2c(c1)OCCCO2,-0.7026,9.323
OCc1csc(N2CCCC(CO)(Cc3cccc(Cl)c3)C2)n1 (stereo not given),-27.49,7.121
COc1ccc(CC(=O)NC(CC(=O)O)c2ccc(F)cc2)cc1OC (stereo not given),0.1616 & -79.85,9.957
CCN(CC(=O)Nc1cc(C(C)(C)C)no1)Cc1ccc(Cl)s1,-10.87,4.274 & -5.992
O=C(CCCOc1cccc(F)c1)N1CCCC(n2cncn2)C1 (stereo not given),2.745,6.412
COCCC1CCN([C@@H]2c3ccccc3C3(CCNCC3)[C@H]2O)CC1,13.01,18.61
Cc1ncncc1C(=O)N1CCCC(n2cccn2)C1 (stereo not given),-18.63,-23.93
CC(Cn1ccnc1)NC(=O)C1(c2ccc(F)cc2)CC1 (stereo not given),-2.453,-13.16
Cn1ncc2c1CN(C(=O)Cc1ccccn1)CC2COCC1CC1.O=C(O)C(F)(F)F.O=C(O)C(F)(F)F (stereo not given),-17.17 & -19.69,-29.97
Cc1ccc(C)c(OC(C)C(=O)NCc2cccnc2)c1 (stereo not given),19.08,-3.31
O=C(c1cc(-n2cccn2)ccn1)N(CC1CCC1)CC(F)(F)F,20.77,33.11
CC(C)c1cnc(N2C[C@H](CO)C[C@H](CN3CCOCC3)C2)nc1,6.64,-5.046
Cc1cnn(CC2CN(CCS(=O)(=O)C(F)(F)F)CCO2)c1 (stereo not given),-45.65,-42.14
Cc1nccn1CCN(C)c1nc(-c2ccc(Cl)cc2)nc2c1CNC2,9.452,42.63
O=C(NCc1ccoc1)Nc1ccc(CN2CCOC2=O)cc1,-27.08,-31.89 & -25.99
O=C(NCCc1nnc2n1CCC2)NC1(c2cccc(F)c2)CC1,-13.91,-5.683 & -5.107
CC(C)CC(=O)Nc1cc(C(=O)N(C)C(C)C)ccc1Cl,-19.3,-3.759
O=C(c1csc(Br)c1)N1CCCC(n2ccnc2)C1 (stereo not given),-2.436,11.1
COCC1c2c(cnn2C)CCN1Cc1ccsc1 (stereo not given),-17.82,-16.94
CCN(Cc1cnn(CC)c1)C(=O)Cn1c(=O)ccc2ccccc21,-5.04,-23.71
Cc1n[nH]c(-c2ccc(NC(=O)C(C)(C)N3CCN(C)CC3)cc2)n1,-12.28,0.6443 & -4.392
CCS(=O)(=O)N1CCC(c2nnc(CN3CCCCC3)n2C)CC1,-8.767,9.33
COC(=O)CNC(=O)CSCc1nc(O)c2c(C)c(C)sc2n1,-2.738,-6.994
CC(C)c1ncc(CN2CCC(O)(c3ccccc3F)CC2)cn1,5.369 & -12.34,19.21
Cc1c(-c2n[nH]c3c2CN(CC2CCOC2)CC3)cccc1C(F)(F)F (stereo not given),4.851,-0.736
c1ccc(CN2CCC(c3nccnc3-n3ccnc3)CC2)cc1,-14,-34.14

The last 4 entries again:

- COC(=O)CNC(=O)CSCc1nc(O)c2c(C)c(C)sc2n1 | Mtb cholesterol medium: -2.738%; Mtb glucose medium: -6.994%
- CC(C)c1ncc(CN2CCC(O)(c3ccccc3F)CC2)cn1 | Mtb cholesterol medium: 5.369% & -12.34%; Mtb glucose medium: 19.21%
- Cc1c(-c2n[nH]c3c2CN(CC2CCOC2)CC3)cccc1C(F)(F)F (stereo not given) | Mtb cholesterol medium: 4.851%; Mtb glucose medium: -0.736%
- c1ccc(CN2CCC(c3nccnc3-n3ccnc3)CC2)cc1 | Mtb cholesterol medium: -14%; Mtb glucose medium: -34.14%

The values are deposited in ChEMBL (CHEMBL3988442, “University of Dundee, Small-Polar-MMV Screening Library” (2021)).